Assay results reported in patent publication US4158018A, “3-Oxa carbinol prostaglandin analogs” (Miles Laboratories, Inc., priority 1978, dated 1979).
At least one compound was matched to its structure with a doubt left.

Tested on: Guinea Pig Trachea
Assay: Effects on the guinea pig trachea in vitro
Conditions: bath concentrations 0.01, 0.1, 1.0 and 10.0 mcg/ml; compared with PGE1 0.1 mcg/ml

**Q.** How did the “Guinea Pig Trachea (value judgement)” value turn out when O=C1CC(O)C(/C=C/[C@H](O)C2CCCCC2)C1CCCCOCCO (stereo partly drawn) [TR-4856, 16,20-methano-3-oxa-1,11α,15R-trihydroxyprost-13E-en-9-one] was run?
**A.** R0 (More than 0 but less relaxation at any concentration than that elicited by PGE1)
